{
  "source": "patent USRE49294",
  "molecular_target": "T1, Cre recombinase (bacteriophage P1) (UniProt P06956)",
  "T1 sequence (looked up, limits assumed)": "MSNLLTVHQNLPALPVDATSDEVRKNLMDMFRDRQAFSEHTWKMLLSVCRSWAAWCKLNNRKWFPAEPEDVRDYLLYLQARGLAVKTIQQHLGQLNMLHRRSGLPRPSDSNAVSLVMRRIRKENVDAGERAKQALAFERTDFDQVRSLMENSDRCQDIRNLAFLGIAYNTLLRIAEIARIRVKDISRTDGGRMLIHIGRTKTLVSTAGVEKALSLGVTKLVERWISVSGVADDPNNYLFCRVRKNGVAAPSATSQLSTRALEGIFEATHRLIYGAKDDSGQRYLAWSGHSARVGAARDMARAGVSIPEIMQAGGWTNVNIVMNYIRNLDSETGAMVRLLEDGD",
  "assay": "activity in cells",
  "settings": "pNN9 with two SS converted to mini ccc at 42 C, none at 30 C; protein in cells; only the site is given",
  "note": "Tags and fusion partners may be left off the protein sequences shown.",
  "data": [
    {"sequence": "TAACTTCGTATAGCATACATTATACGAAGTTAT (double strand) [loxP site within Super Sequence]", "values": [
      {"measurement": "activity on this sequence", "result": "active"}
    ]}
  ]
}
